Reference: paper PMC11024185
No constants are given. Whether binding was seen depends on the method and setting. In cells and extracts the contact can be indirect. Here binding means that the protein was enriched with, or labelled near, the bait; the list need not be complete. For part of these data: Sequences can lack the tags named with a protein.

Columns and labels:
[1] = target: T1, Ssf1-3xFLAG-3C-2xProteinA (S. cerevisiae) (UniProt P38789); assay: affinity purification with mass spectrometry; split-tag purification of pre-60S particles from yeast overexpressing dbp10 R522V (β-estradiol, 1 h): IgG Sepharose on Ssf1-2xProteinA, 3C cleavage, then Strep-Tactin on Dbp10 R522V, bdNEDD8 protease elution; 50 mM Bis-Tris-Propane pH 8.0, 125 mM NaCl, 25 mM KCl, 10 mM MgCl2; Coomassie-stained 4-20% SDS-PAGE, bands named by molecular weight, ambiguous bands by mass spectrometry
T1 sequence: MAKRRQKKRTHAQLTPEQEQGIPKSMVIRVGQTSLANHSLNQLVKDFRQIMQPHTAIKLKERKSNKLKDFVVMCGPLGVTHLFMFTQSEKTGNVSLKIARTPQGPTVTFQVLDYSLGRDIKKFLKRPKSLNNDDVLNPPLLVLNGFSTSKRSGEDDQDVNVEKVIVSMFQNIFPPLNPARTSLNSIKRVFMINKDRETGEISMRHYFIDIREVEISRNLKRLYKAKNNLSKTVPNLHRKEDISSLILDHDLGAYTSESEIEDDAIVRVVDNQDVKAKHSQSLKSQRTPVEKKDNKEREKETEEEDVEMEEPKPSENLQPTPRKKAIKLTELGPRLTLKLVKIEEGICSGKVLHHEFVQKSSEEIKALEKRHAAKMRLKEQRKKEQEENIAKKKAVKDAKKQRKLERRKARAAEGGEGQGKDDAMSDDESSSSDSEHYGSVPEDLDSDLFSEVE

[2] = target: T2, Dbp10 R522V (sfGFP-3xSTREP-bdNEDD8-MYC-dbp10 R522V) (S. cerevisiae) (UniProt Q12389); assay: as above
T2 sequence: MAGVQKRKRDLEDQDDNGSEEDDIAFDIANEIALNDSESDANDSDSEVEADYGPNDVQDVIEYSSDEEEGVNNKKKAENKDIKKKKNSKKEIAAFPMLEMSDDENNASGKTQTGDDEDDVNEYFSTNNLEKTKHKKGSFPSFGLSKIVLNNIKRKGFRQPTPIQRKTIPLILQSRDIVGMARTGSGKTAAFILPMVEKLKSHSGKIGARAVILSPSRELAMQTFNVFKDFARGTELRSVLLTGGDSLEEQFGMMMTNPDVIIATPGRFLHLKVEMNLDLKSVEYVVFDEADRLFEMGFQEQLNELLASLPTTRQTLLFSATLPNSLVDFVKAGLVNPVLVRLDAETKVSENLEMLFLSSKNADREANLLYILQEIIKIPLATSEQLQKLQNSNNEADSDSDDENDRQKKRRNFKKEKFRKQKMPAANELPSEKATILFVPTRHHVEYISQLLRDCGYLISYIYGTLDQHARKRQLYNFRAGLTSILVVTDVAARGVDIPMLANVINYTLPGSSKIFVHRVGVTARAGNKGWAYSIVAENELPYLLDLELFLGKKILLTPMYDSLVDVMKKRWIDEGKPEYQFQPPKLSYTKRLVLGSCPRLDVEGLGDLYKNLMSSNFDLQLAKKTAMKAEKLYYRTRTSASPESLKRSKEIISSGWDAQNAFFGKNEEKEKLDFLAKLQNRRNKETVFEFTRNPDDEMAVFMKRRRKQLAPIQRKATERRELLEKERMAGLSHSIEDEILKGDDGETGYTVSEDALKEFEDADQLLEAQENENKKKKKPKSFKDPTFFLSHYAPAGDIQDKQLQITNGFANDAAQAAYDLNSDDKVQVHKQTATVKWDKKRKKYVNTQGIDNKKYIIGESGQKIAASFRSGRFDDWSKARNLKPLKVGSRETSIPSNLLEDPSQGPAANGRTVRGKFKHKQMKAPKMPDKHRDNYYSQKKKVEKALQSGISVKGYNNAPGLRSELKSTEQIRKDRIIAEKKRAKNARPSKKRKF

[3] = target: T3, Drs1 R569Q (3x-Strep-Drs1 R569Q) (S. cerevisiae) (UniProt P32892); assay: affinity purification with mass spectrometry; purification of pre-60S intermediates from a drs1 R569Q strain by tags on Drs1 R569Q (3x-Strep) and Ssf1 (2x-ProtA); Coomassie-stained 4-20% SDS-PAGE
T3 sequence: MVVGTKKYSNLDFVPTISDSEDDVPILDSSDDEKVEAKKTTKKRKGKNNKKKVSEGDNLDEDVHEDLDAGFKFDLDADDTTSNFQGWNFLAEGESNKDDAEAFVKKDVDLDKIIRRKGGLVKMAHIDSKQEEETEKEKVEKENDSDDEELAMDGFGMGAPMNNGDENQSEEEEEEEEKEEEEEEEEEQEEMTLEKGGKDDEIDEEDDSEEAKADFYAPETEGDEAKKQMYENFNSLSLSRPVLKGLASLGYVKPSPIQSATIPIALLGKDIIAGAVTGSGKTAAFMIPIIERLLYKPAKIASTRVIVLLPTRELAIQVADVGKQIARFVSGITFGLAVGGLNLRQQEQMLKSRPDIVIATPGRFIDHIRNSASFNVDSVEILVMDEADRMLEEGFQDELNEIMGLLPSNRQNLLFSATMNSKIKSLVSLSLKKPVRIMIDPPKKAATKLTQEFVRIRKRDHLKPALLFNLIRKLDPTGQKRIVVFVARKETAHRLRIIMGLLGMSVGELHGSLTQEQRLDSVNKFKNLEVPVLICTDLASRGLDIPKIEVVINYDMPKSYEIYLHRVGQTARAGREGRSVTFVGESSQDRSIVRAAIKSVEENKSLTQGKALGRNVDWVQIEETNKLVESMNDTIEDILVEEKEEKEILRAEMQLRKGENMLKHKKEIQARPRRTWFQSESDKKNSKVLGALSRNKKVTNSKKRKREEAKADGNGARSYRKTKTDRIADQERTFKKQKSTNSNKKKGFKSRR

Measured: binding

B1: Rrp1 (protein, UniProt P35178 1-278)
chain: METSNFVKQLSSNNRKTRVNALEALKKYLTAKQFKENKQIEFNKLWKGLYYAMWFSDRPRPQQRLANELGELHGLYFDPKDNSTADELTTNDKAFIKFSRGFWKVMCFEWFNIDRYRLDKYLLLIRRVLFSQLKYLQSRNWDKKLVDEYIKKVLRWLPLSGSPKVYTGIPIHIVDILLDEWERLLKDGDEDDEDEENKEEEMRKIAESAKKTPLADVIAIFQDIVADYNNSKVLREKIKEDLFSDTRLVSWDILEGETQHNDSSNESEEEEEEEWKGF
binds: all assays above

B2: uL18 (protein, UniProt P26321 1-297)
chain: MAFQKDAKSSAYSSRFQTPFRRRREGKTDYYQRKRLVTQHKAKYNTPKYRLVVRFTNKDIICQIISSTITGDVVLAAAYSHELPRYGITHGLTNWAAAYATGLLIARRTLQKLGLDETYKGVEEVEGEYELTEAVEDGPRPFKVFLDIGLQRTTTGARVFGALKGASDGGLYVPHSENRFPGWDFETEEIDPELLRSYIFGGHVSQYMEELADDDEERFSELFKGYLADDIDADSLEDIYTSAHEAIRADPAFKPTEKKFTKEQYAAESKKYRQTKLSKEERAARVAAKIAALAGQQ
binds: all assays above

B3: Ebp2 (protein, UniProt P36049 1-427)
chain: MAKGFKLKELLSHQKEIEKAEKLENDLKKKKSQELKKEEPTIVTASNLKKLEKKEKKADVKKEVAADTEEYQSQALSKKEKRKLKKELKKMQEQDATEAQKHMSGDEDESGDDREEEEEEEEEEEGRLDLEKLAKSDSESEDDSESENDSEEDEDVVAKEESEEKEEQEEEQDVPLSDVEFDSDADVVPHHKLTVNNTKAMKHALERVQLPWKKHSFQEHQSVTSETNTDEHIKDIYDDTERELAFYKQSLDAVLVARDELKRLKVPFKRPLDYFAEMVKSDEHMDKIKGKLIEEASDKKAREEARRQRQLKKFGKQVQNATLQKRQLEKRETLEKIKSLKNKRKHNEIDHSEFNVGVEEEVEGKRFDRGRPNGKRAAKNAKYGQGGMKRFKRKNDATSSADVSGFSSRKMKGKTNRPGKSRRARRF
binds: all assays above

B4: Nop15 (protein, UniProt P53927 1-220)
chain: MVKSTSKTSTKETVTKQPTEEKPIQEKEELALETSSSSSDEEDEKDEDEIEGLAASDDEQSGTHKIKRLNPKKQANEKKSKDKKTLEEYSGIIYVSRLPHGFHEKELSKYFAQFGDLKEVRLARNKKTGNSRHYGFLEFVNKEDAMIAQESMNNYLLMGHLLQVRVLPKGAKIEKLYKYKKRVLVEKGITKPVKQLKDNMKQKHEERIKKLAKSGIEFKW
binds: all assays above

B5: Rpf1 (protein, UniProt P38805 1-295)
chain: MALGNEINITNKLKRQEIFADIKHEKNKERHTMRRKRAKEERENPELREQRLKENVTQTIENTRVYDETINKEVEGDEDDLMRYFNSNSNEPPKIFLTTNVNAKKSAYEFANILIEILPNVTFVKRKFGYKLKEISDICIKRNFTDIVIINEDKKKVTGLTFIHLPEGPTFYFKLSSFVEVKKIVGHGRPTSHIPELILNNFQTRLGQTVGRLFQSILPQNPDIEGRQVITLHNQRDYIFFRRHRYVFKDNERVGLQELGPQFTLKLKRLQRGIKEETEWEHKPEMDKEKKKFYL
binds: all assays above

B6: Rlp7 (protein, UniProt P40693 1-322)
chain: MSSTQDSKAQTLNSNPEILLRKRRNADRTRIERQELAKKKREEQIKKKRSNKNKFVRAESIVAKTLATSREKERIKRVSILEDKKAKNETQHIASGKDFILKITEKANGAEENSVDLEETEEEEDDGLIREKTTYDGKPALLFIVRVRGPLAVNIPNKAFKILSLLRLVETNTGVFVKLTKNVYPLLKVIAPYVVIGKPSLSSIRSLIQKRGRIIYKGENEAEPHEIVLNDNNIVEEQLGDHGIICVEDIIHEIATMGESFSVCNFFLQPFKLNREVSGFGSLNRLRKIKQREAESRTRQFSNAATAPVIEVDIDSLLAKLN
binds: all assays above

B7: Brx1 (protein, UniProt Q08235 1-291)
chain: MSSIYKALAGKSKDNKSEKKQGNVKQFMNKQRTLLISSRGVNYRHRHLIQDLSGLLPHSRKEPKLDTKKDLQQLNEIAELYNCNNVLFFEARKHQDLYLWLSKPPNGPTIKFYIQNLHTMDELNFTGNCLKGSRPVLSFDQRFESSPHYQLIKELLVHNFGVPPNARKSKPFIDHVMSFSIVDDKIWVRTYEISHSTKNKEEYEDGEEDISLVEIGPRFVMTVILILEGSFGGPKIYENKQYVSPNVVRAQIKQQAAEEAKSRAEAAVERKIKRRENVLAADPLSNDALFK
binds: all assays above

B8: Rcm1 (enzyme, UniProt P53972 1-490)
chain: MNFYRDATWVLEDIEKEAAKERISGSMQTLVLKSCKRYKLKSNPKHIYAVLDSCWKYKPYLEKVMKKAHILEDIPKKKGKPLFSRLTLLLLCHDLLLSKQKRIQMGKHPIKDYVLKFKSPLHSEMVKLKLKLKVRELSELVLSEDISNDLPPVRWIRINPLKCHPNGETEPVLAELRKKFTLKVDKWSELVPGSIYYDEFIPNLFGIHPSDKITAHELYKHGKIIIQDRASCFPAHILNPGPSDIVIDSCSAPGNKTTHTASYIYPEPPKDNNTRIYAFEKDPERAKVLQKMIKIAGCSPNISVNVGDFTKLATPEKYKDVTCFIVDPSCSGSGIFGRKFFDSFNRRKIDDKDDDGGIVPDEQEEFIAKEELQTRLAKLSSFQFQMVKHAMSFPAAKKIVYSTCSIHAEENERVVIDLLLDKSVREWGWKVAPKREVIPSWPRRGKVEEFEEVFRDGVTYDPQQLAEGCIRALPKSDGGIGFFAVCFERD
binds: all assays above
